Measurements taken from article PMC2703784.
These are yes or no findings as the source states them, for the method shown. Binding seen in cells or lysates may run through a third protein. Some results given as binding are weak or reduced against the parent protein; the word gives no strength. Sequences can lack the tags named with a protein.

Amino acid sequences for entries named in this document (tags omitted). Residues count along the entry.
UniProt P27467, residues 19-352: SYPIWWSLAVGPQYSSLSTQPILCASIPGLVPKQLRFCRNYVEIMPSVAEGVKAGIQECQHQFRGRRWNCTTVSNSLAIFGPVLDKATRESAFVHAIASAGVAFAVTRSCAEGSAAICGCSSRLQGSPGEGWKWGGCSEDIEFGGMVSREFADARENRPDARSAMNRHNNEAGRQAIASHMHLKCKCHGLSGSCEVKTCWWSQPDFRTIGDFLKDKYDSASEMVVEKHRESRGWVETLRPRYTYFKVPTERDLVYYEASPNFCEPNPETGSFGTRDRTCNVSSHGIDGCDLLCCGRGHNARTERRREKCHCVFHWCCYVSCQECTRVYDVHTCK

Columns and labels:
[1] = target: T1, Wnt1 tagged with HA at its carboxy terminus (mouse) (UniProt P04426); experiment: co-IP; Oto and Wnt1 co-expressed in 293 cells; soluble and insoluble Wnt1; data not shown
T1 sequence: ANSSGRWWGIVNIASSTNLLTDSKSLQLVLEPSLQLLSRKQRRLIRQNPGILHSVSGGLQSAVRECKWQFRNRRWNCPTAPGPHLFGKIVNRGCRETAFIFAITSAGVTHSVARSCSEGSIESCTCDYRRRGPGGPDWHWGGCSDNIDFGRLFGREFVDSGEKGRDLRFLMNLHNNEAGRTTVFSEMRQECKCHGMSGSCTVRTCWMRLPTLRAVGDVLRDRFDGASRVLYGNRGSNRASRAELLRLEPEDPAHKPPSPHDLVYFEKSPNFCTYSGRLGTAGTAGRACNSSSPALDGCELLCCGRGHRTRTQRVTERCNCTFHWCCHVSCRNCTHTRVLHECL

[2] = target: Wnt3a tagged with HA at its carboxy terminus (mouse) (UniProt P27467); experiment: co-IP; Wnt3a-HA immunopurified on HA affinity matrix from soluble (RIPA) extracts of 293 cells co-expressing Oto and Wnt3a, non-denaturing conditions; Western blot
[3] = target: Oto-modified Wnt3a (42 kDa hydrophobic isoform of Wnt3a-HA) (mouse) (UniProt P27467); experiment: co-IP; Wnt3a immunopurified from 35S-labeled Oto+Wnt3a insoluble extracts by the same method; co-precipitated proteins seen by autoradiography of the gel
[4] = target: Oto-modified Wnt3a (42 kDa hydrophobic isoform of Wnt3a-HA) (mouse) (UniProt P27467); experiment: co-IP; Wnt3a-HA immunoprecipitated on HA matrix from insoluble extracts of Oto+Wnt3a 293 cells (pellet in 1% SDS, 20 mM Hepes pH 7, 150 mM NaCl, 10 mM DTT, 10 min at 80°C, diluted 10x with SDS-free RIPA); Western blot

binding [1]: binds
binding [2]: binds
binding [3]: binds
binding [4]: binds
B1: Oto (mouse ortholog of the gpi deacylase PGAP1), 3xflag-tagged (protein, UniProt Q3UUQ7 1-922)
chain: MFLHSVNLWNLAFYVFMVFLATLGLWDVFFGFEENKCSMSYMFEYPEYQKIELPKKLTKRYPAYELYLYGEGSYAEEHKILPLTGIPVLFLPGNAGSYKQVRSIGSIALRKAEDIDFKYHFDFFSVNFNEELVALYGGSLQKQTKFVHECIKAILKLYKGQEFAPTSVAIIGHSMGGLVARALLTLKNFKQDLINLLVTQATPHVAPVMPLDRFITEFYMNVNNYWILNARHINLTTLSVAGGFRDYQVRSGLTFLPKLSHYTSALSVVSSAVPKTWVSTDHLSIVWCKQLQLTTIRAFFDLIDADTKQITQKPKKKLSVLNHHFIRHPAKQFEENPSIISDLTGTSMWVPVKVSRWSYVAYNESDKIYFAFPLANHRKIYTHAYCQSTMLDTNSWIFGCINSTSMCRQGVDLSWKAELLPTIKSLTLRLQDYPSLSHIVVYVPSVHGSKFVVDCEFFKKEARSMQLPVTHLFSFGLSSRKVTLNTNGLYYNIELLNFGQIYQAFKVNVVSKCTGSKEEITSIYKLHIPWSYEDSLTIAQVPSSTDISLKLHVAQPENDSHVALLKMYTSSDCQYEVTIKTSFPQILGQVVRFHGGALPAYVVSSILLAYGGQLYSLLSTGYCLEYSTILDKEAKPYKVDPFVIMIKFLLGYKWFKELWDAVLLPELDAIVLTSQSMCFPLVSLILFLFGTCTAYWSGLLSSTSVQLLSSLWLALKRPAELPKDIKVMSPDLPVLTVVFLIVSWTTCGALAILLSYLYYVFKVVHLQASLTTFKNNQPVNPKHSRRSEKKSNHHKDSAVQSLRLCANDAEDSLRMHSTVINLLTWVVLLSMPSLIYWLKNLRYYFKLSPDPCKPLAFLLIPAIAILGNTHTVSVKSSKLLKTVSQFPLPLAVGVIAFGSSHLYRVPCFVIIPLVFHALCNFM
